In assay [1] the target is T1, CEPT1 wild type as used in the co-immunoprecipitations and pull-downs (Fig. 2A, S4N, 5A-D, S7G) (human) (UniProt Q9Y6K0).
T1 sequence: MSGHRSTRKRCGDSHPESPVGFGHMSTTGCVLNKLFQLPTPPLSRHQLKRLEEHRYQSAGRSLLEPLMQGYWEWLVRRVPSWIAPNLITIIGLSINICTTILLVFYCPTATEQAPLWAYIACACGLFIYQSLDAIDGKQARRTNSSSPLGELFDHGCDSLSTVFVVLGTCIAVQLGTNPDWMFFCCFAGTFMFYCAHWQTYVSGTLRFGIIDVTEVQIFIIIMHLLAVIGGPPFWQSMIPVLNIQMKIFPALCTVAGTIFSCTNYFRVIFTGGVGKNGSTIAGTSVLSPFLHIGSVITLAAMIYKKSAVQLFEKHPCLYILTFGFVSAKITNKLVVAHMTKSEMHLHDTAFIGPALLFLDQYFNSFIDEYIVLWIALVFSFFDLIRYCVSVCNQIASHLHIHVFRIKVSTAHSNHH
Put plainly: pull-down; S protein beads, SFB-tagged proteins as baits; indicated proteins detected by Western blot (Fig. 5A-D). For orientation: Immunoblotting shows a protein as a band on a membrane.

For assay [2], the target named is T2, LPCAT3 as used in the co-immunoprecipitations (Fig. 2A, Fig. S6B) (human) (UniProt Q6P1A2).
T2 sequence: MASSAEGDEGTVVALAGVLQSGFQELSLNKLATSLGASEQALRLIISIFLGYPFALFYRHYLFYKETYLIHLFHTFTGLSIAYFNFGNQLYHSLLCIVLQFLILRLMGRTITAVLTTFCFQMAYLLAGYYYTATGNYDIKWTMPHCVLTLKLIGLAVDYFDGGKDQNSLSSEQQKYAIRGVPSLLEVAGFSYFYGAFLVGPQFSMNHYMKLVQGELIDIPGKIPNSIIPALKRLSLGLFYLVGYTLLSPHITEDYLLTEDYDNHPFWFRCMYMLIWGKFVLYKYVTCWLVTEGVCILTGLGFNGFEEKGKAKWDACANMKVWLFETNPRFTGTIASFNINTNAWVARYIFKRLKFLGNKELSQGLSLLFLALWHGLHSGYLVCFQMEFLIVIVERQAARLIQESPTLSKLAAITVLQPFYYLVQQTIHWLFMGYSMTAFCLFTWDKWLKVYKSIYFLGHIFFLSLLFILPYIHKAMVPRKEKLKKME
Description: co-IP; S protein beads, SFB-tagged proteins as baits (Fig. 2A); proteins detected by Western blot; Fig. S4N and S6B called co-immunoprecipitation in the text.

Results are given in words; binding and its absence hold for the method and conditions named. In cells and extracts the contact can be indirect. Some results given as binding are weak or reduced against the parent protein; the word gives no strength.

B1: ABHD3 as used in the pull-down (Fig. 5A-D) (enzyme, UniProt Q8WU67 1-409)
chain: MQRLAMDLRMLSRELSLYLEHQVRVGFFGSGVGLSLILGFSVAYAFYYLSSIAKKPQLVTGGESFSRFLQDHCPVVTETYYPTVWCWEGRGQTLLRPFITSKPPVQYRNELIKTADGGQISLDWFDNDNSTCYMDASTRPTILLLPGLTGTSKESYILHMIHLSEELGYRCVVFNNRGVAGENLLTPRTYCCANTEDLETVIHHVHSLYPSAPFLAAGVSMGGMLLLNYLGKIGSKTPLMAAATFSVGWNTFACSESLEKPLNWLLFNYYLTTCLQSSVNKHRHMFVKQVDMDHVMKAKSIREFDKRFTSVMFGYQTIDDYYTDASPSPRLKSVGIPVLCLNSVDDVFSPSHAIPIETAKQNPNVALVLTSYGGHIGFLEGIWPRQSTYMDRVFKQFVQAMVEHGHELS
B1: in assay [1], the binding result is “binds”.

B2: EPT1 as used in the co-immunoprecipitation (Fig. S6B) (enzyme, UniProt Q9C0D9 1-397)
chain: MAGYEYVSPEQLAGFDKYKYSAVDTNPLSLYVMHPFWNTIVKVFPTWLAPNLITFSGFLLVVFNFLLMAYFDPDFYASAPGHKHVPDWVWIVVGILNFVAYTLDGVDGKQARRTNSSTPLGELFDHGLDSWSCVYFVVTVYSIFGRGSTGVSVFVLYLLLWVVLFSFILSHWEKYNTGILFLPWGYDISQVTISFVYIVTAVVGVEAWYEPFLFNFLYRDLFTAMIIGCALCVTLPMSLLNFFRSYKNNTLKLNSVYEAMVPLFSPCLLFILSTAWILWSPSDILELHPRVFYFMVGTAFANSTCQLIVCQMSSTRCPTLNWLLVPLFLVVLVVNLGVASYVESILLYTLTTAFTLAHIHYGVRVVKQLSSHFQIYPFSLRKPNSDULGMEEKNIGL
As for B2, the binding entry in assay [2] is reported as “binds”.

B3: DDHD2 as used in the pull-down (Fig. 5A-D) (enzyme, UniProt O94830 1-711)
chain: MSSVQSQQEQLSQSDPSPSPNSCSSFELIDMDAGSLYEPVSPHWFYCKIIDSKETWIPFNSEDSQQLEEAYSSGKGCNGRVVPTDGGRYDVHLGERMRYAVYWDELASEVRRCTWFYKGDKDNKYVPYSESFSQVLEETYMLAVTLDEWKKKLESPNREIIILHNPKLMVHYQPVAGSDDWGSTPTEQGRPRTVKRGVENISVDIHCGEPLQIDHLVFVVHGIGPACDLRFRSIVQCVNDFRSVSLNLLQTHFKKAQENQQIGRVEFLPVNWHSPLHSTGVDVDLQRITLPSINRLRHFTNDTILDVFFYNSPTYCQTIVDTVASEMNRIYTLFLQRNPDFKGGVSIAGHSLGSLILFDILTNQKDSLGDIDSEKDSLNIVMDQGDTPTLEEDLKKLQLSEFFDIFEKEKVDKEALALCTDRDLQEIGIPLGPRKKILNYFSTRKNSMGIKRPAPQPASGANIPKESEFCSSSNTRNGDYLDVGIGQVSVKYPRLIYKPEIFFAFGSPIGMFLTVRGLKRIDPNYRFPTCKGFFNIYHPFDPVAYRIEPMVVPGVEFEPMLIPHHKGRKRMHLELREGLTRMSMDLKNNLLGSLRMAWKSFTRAPYPALQASETPEETEAEPESTSEKPSDVNTEETSVAVKEEVLPINVGMLNGGQRIDYVLQEKPIESFNEYLFALQSHLCYWESEDTVLLVLKEIYQTQGIFLDQPLQ
As to B3, the binding result in assay [1] is “binds”.

B4: DDHD1 as used in the pull-down (Fig. 5A-D) (enzyme, UniProt Q8NEL9 1-900)
chain: MNYPGRGSPRSPEHNGRGGGGGAWELGSDARPAFGGGVCCFEHLPGGDPDDGDVPLALLRGEPGLHLAPGTDDHNHHLALDPCLSDENYDFSSAESGSSLRYYSEGESGGGGSSLSLHPPQQPPLVPTNSGGGGATGGSPGERKRTRLGGPAARHRYEVVTELGPEEVRWFYKEDKKTWKPFIGYDSLRIELAFRTLLQTTGARPQGGDRDGDHVCSPTGPASSSGEDDDEDRACGFCQSTTGHEPEMVELVNIEPVCVRGGLYEVDVTQGECYPVYWNQADKIPVMRGQWFIDGTWQPLEEEESNLIEQEHLNCFRGQQMQENFDIEVSKSIDGKDAVHSFKLSRNHVDWHSVDEVYLYSDATTSKIARTVTQKLGFSKASSSGTRLHRGYVEEATLEDKPSQTTHIVFVVHGIGQKMDQGRIIKNTAMMREAARKIEERHFSNHATHVEFLPVEWRSKLTLDGDTVDSITPDKVRGLRDMLNSSAMDIMYYTSPLYRDELVKGLQQELNRLYSLFCSRNPDFEEKGGKVSIVSHSLGCVITYDIMTGWNPVRLYEQLLQKEEELPDERWMSYEERHLLDELYITKRRLKEIEERLHGLKASSMTQTPALKFKVENFFCMGSPLAVFLALRGIRPGNTGSQDHILPREICNRLLNIFHPTDPVAYRLEPLILKHYSNISPVQIHWYNTSNPLPYEHMKPSFLNPAKEPTSVSENEGISTIPSPVTSPVLSRRHYGESITNIGKASILGAASIGKGLGGMLFSRFGRSSTTQSSETSKDSMEDEKKPVASPSATTVGTQTLPHSSSGFLDSAYFRLQESFFNLPQLLFPENVMQNKDNALVELDHRIDFELREGLVESRYWSAVTSHTAYWSSLDVALFLLTFMYKHEHDDDAKPNLDPI
On to B4, for which the binding result in assay [1] is listed as “binds”.

Values taken from PMC11365556.
